Reference: patent US20180010132A1, “INHIBITION OF PRMT5 TO TREAT MTAP-DEFICIENCY-RELATED DISEASES” (NOVARTIS AG, priority 2014, published 2018)
At least one structure is not confirmed: it was looked up by name or label, or the drawing left a doubt. Some of these results come from one statement about several compounds together.

Columns and labels:
all other HMTs tested = test: LC/MS based biochemical histone methyltransferase panel (other HMTs); conditions: read-out: inhibitory activity (IC50)
Miapaca2 cells = test: In vitro proliferation assay of MIAPaCa2 cells (confluence, Incucyte); assay type: cell-based, human; conditions: MIAPaCa2 stably expressing MTAP and inducible shPRMT5-2 +/-Dox; 10, 15, 25 uM MTA
PK1 cells = test: Focus formation of PK1 wild type and MTAP knockout cells; assay type: cell-based, human; conditions: PK1 MTAP KO vs parental (WT); compare 12.5 uM dose

Row | Structure (SMILES) | IC50 (all other HMTs tested) [µM] | sensitivity of MTAP rescued cells to PRMT5 knockdown (Miapaca2 cells) | sensitivity to MTA treatment (focus formation) (PK1 cells)
1 | CSC[C@H]1O[C@@H](n2cnc3c(N)ncnc32)[C@H](O)[C@@H]1O [MTA, methyl-thioadenosine] | > 100 | restores sensitivity | greater sensitivity
2 | Nc1ncnc2c1ncn2[C@@H]1O[C@H](CO)[C@@H](O)[C@H]1O [adenosine] | > 100 |  | 
